In PMC10269791 one finds binding data, which are given here for four molecules.

By UniProt entry, the sequences of proteins in these tests, tags left out.
UniProt Q09472: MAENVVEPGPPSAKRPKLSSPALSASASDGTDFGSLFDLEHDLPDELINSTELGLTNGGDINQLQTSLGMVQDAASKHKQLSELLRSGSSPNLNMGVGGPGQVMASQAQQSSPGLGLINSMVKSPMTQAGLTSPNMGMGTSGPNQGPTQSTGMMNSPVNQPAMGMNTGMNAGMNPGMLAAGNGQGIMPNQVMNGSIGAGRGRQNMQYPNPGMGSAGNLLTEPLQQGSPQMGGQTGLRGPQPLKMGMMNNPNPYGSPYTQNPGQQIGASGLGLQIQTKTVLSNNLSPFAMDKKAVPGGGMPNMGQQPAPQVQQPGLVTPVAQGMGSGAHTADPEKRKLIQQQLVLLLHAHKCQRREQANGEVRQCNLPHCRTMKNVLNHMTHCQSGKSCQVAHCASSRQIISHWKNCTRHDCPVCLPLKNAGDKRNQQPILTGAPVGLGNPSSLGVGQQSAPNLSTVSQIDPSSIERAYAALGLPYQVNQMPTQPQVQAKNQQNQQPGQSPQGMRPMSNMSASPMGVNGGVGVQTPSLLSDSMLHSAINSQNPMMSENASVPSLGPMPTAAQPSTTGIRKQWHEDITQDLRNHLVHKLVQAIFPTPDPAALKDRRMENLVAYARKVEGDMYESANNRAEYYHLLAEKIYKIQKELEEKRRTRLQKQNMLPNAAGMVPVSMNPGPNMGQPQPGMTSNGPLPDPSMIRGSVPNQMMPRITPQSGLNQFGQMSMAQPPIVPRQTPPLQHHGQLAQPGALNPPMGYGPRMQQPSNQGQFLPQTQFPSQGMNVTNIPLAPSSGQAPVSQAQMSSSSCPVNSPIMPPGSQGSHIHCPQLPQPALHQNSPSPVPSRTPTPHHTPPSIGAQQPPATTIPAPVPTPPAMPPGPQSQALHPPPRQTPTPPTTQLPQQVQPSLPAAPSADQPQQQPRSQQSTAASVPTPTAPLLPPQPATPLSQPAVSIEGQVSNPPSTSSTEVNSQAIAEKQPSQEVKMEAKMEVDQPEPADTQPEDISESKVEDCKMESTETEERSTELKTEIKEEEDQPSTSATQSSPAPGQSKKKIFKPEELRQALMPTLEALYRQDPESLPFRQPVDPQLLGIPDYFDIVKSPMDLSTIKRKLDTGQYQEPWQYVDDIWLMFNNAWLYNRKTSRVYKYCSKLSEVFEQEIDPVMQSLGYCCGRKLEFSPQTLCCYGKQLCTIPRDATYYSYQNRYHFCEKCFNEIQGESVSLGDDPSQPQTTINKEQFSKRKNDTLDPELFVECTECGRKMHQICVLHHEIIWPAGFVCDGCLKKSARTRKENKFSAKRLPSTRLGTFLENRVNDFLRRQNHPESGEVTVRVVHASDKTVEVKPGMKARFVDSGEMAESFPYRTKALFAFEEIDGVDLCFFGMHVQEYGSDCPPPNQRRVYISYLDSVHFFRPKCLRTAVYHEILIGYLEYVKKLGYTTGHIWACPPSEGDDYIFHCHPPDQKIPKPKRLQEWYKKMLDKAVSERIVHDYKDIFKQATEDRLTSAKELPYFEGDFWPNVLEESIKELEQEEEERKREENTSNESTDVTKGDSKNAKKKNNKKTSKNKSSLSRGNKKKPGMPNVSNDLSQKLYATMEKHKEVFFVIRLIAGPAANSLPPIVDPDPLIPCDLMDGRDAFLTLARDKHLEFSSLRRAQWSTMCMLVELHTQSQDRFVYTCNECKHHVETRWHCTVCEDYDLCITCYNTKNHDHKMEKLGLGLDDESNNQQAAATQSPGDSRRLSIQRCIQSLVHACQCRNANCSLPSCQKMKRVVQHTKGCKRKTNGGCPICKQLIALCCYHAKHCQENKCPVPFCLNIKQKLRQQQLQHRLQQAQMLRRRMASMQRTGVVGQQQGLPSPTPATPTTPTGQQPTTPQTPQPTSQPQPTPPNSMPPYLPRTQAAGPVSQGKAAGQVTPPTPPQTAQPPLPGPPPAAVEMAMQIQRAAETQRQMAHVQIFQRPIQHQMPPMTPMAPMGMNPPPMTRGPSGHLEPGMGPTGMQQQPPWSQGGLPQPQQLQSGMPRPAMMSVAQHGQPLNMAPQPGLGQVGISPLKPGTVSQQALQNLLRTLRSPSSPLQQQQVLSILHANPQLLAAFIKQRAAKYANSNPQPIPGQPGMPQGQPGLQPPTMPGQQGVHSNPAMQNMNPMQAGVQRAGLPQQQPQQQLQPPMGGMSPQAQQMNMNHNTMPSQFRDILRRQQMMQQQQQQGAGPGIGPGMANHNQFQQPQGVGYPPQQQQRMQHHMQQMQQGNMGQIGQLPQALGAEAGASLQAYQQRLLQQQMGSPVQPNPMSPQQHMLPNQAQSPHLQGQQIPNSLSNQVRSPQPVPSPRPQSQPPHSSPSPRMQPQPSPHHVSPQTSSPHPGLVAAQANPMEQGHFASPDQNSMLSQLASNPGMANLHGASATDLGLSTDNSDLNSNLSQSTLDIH
UniProt Q92793: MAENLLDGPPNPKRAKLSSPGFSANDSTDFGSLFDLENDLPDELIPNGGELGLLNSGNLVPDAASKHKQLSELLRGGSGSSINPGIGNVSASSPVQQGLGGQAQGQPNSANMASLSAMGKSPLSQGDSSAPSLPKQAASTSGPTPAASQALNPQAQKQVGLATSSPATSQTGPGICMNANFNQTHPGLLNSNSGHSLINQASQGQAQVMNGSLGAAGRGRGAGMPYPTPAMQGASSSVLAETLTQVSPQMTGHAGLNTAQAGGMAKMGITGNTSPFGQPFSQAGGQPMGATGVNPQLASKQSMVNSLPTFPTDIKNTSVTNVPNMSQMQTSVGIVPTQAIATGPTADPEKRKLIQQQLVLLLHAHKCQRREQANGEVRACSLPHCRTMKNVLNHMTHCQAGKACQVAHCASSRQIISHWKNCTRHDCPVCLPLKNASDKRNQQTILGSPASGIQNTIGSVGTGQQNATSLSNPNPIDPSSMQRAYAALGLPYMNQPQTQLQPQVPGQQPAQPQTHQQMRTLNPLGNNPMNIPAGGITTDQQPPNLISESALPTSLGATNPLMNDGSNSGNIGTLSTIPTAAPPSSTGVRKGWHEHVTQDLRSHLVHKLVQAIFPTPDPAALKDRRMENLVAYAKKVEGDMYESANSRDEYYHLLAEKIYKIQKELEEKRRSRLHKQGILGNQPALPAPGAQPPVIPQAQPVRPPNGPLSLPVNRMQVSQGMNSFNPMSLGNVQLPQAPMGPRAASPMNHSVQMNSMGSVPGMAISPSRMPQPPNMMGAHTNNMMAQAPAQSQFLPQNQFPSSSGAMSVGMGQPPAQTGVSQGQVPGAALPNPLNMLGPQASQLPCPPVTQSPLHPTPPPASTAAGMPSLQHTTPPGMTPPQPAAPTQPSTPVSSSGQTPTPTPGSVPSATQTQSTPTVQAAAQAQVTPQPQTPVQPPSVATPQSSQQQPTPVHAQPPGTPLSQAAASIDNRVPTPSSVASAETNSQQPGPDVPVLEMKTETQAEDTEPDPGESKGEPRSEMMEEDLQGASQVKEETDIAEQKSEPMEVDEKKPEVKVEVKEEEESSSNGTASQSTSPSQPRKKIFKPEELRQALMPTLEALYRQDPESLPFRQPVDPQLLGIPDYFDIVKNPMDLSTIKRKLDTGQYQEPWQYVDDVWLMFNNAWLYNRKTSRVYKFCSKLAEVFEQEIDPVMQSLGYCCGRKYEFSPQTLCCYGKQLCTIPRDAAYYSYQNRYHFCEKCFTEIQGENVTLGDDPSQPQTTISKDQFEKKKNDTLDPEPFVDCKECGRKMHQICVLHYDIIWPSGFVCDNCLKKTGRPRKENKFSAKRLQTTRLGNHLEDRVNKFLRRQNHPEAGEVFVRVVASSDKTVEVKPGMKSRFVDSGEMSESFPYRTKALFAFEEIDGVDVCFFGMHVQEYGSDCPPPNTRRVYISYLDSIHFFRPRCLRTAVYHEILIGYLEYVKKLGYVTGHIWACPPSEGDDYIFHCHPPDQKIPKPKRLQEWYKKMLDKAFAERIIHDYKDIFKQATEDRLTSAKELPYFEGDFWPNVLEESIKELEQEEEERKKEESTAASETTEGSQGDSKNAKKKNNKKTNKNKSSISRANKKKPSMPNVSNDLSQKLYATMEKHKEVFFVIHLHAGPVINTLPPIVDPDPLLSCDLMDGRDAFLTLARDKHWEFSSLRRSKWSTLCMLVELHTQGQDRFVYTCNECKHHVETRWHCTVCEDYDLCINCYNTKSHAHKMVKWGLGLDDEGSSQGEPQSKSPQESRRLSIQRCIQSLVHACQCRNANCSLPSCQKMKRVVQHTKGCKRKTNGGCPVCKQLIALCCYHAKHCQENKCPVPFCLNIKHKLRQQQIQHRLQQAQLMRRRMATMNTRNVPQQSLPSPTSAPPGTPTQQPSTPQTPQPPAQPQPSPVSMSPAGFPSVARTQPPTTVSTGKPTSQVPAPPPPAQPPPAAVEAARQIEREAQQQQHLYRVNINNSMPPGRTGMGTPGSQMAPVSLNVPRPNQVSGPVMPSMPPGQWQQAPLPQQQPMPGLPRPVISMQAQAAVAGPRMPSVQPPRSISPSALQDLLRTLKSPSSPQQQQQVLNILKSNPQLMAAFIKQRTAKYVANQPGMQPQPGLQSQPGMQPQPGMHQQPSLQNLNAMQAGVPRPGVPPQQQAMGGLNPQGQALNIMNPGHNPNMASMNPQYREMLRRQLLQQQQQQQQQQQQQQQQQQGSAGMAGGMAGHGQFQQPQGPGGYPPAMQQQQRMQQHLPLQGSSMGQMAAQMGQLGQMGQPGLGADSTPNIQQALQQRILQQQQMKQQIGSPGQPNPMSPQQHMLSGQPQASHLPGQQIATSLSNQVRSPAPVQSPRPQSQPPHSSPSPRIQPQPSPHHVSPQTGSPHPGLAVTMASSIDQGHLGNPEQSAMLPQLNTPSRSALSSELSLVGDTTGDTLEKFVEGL
UniProt Q04206: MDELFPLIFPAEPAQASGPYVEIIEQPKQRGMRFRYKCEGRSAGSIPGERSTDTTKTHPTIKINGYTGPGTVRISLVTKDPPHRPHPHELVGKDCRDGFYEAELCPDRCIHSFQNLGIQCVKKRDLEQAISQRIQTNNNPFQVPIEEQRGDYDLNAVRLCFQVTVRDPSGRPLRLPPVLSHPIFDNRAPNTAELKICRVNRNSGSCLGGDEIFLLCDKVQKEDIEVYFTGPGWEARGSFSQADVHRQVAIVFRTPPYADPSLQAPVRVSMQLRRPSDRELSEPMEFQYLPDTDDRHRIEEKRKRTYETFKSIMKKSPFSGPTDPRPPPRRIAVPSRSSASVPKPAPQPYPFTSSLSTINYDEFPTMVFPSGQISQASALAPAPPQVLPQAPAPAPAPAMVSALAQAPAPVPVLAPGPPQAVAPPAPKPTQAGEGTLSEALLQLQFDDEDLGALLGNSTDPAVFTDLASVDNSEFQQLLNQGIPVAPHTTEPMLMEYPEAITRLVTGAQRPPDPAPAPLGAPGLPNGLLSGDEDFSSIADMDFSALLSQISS
UniProt Q14653: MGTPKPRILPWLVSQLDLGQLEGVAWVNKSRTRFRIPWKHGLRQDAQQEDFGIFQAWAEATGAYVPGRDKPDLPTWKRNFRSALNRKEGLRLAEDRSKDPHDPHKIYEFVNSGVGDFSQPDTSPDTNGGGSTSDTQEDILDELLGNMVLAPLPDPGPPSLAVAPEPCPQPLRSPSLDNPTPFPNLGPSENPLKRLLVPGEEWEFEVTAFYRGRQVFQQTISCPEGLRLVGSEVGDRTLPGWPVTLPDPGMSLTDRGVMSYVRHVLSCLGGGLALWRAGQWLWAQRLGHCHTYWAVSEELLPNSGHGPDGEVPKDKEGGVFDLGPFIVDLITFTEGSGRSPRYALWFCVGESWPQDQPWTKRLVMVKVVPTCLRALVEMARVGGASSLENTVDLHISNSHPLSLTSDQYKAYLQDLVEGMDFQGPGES

These are yes or no findings as the source states them, for the method shown. Binding seen in cells or lysates may run through a third protein. Some results given as binding are weak or reduced against the parent protein; the word gives no strength. For some of these results: Tags and fused reporters may be left off the sequences shown.

The target in assay [1] is p300-Myc (UniProt Q09472). The experiment in a line: co-IP; HEK293T cells cotransfected with tagged expression plasmids for 24 h; lysed in RIPA buffer on ice 30 min; 3 μg anti-tag MAb or nonspecific IgG at 4°C overnight, protein A/G plus agarose 4 h; SDS-PAGE and WB; in some panels gp110-HA or vector was coexpressed and cells were treated with SeV (100 HAU/mL, 16 h), CHX (50 μg/mL) and/or MG132 (20 μM, 4 h).

Assay [2] has as its target CBP-Flag (UniProt Q92793). Described as above.
Assay [3] addresses T1, IKKi-Myc (UniProt Q14164).
T1 sequence: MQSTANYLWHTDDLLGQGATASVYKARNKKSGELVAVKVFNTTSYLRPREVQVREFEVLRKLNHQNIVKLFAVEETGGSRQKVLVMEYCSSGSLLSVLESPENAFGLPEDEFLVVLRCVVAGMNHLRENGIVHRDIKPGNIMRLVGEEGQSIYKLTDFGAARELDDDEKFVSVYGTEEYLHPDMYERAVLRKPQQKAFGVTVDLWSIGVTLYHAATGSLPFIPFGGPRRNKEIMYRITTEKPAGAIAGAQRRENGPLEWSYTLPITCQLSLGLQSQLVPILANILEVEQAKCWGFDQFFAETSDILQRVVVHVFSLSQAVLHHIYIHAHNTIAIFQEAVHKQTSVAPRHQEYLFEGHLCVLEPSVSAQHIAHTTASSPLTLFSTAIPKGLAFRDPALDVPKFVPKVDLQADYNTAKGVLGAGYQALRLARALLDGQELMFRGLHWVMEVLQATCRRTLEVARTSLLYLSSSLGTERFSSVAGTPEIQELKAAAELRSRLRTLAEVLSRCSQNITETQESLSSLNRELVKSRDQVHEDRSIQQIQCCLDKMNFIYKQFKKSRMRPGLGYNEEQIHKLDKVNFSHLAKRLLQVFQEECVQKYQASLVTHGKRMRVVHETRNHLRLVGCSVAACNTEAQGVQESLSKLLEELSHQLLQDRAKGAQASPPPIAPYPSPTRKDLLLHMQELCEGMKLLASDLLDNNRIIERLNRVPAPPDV
Described as above.

For assay [4], the target named is endogenous p65 of HEK293T cells (human (endogenous in HEK293T)) (UniProt Q04206). The experiment in a line: co-IP; HEK293T cells transfected with gp110-HA or vector, infected with or without SeV 100 HAU/mL for 16 h; rabbit anti-p65 pAb; endogenous IKKi and p65 detected by WB.

In the case of IRF3-Flag (from UniProt Q14653 1-427), in assay [1], the binding entry was “binds”.

As for IRF3-HA (from UniProt Q14653 1-427), the binding entry in assay [2] is listed as “binds”.

As to p65-Flag (from UniProt Q04206 1-551), the binding entry in assay [3] was “binds”.

B1: endogenous IKKi of HEK293T cells (protein, UniProt Q14164 1-716)
chain: MQSTANYLWHTDDLLGQGATASVYKARNKKSGELVAVKVFNTTSYLRPREVQVREFEVLRKLNHQNIVKLFAVEETGGSRQKVLVMEYCSSGSLLSVLESPENAFGLPEDEFLVVLRCVVAGMNHLRENGIVHRDIKPGNIMRLVGEEGQSIYKLTDFGAARELDDDEKFVSVYGTEEYLHPDMYERAVLRKPQQKAFGVTVDLWSIGVTLYHAATGSLPFIPFGGPRRNKEIMYRITTEKPAGAIAGAQRRENGPLEWSYTLPITCQLSLGLQSQLVPILANILEVEQAKCWGFDQFFAETSDILQRVVVHVFSLSQAVLHHIYIHAHNTIAIFQEAVHKQTSVAPRHQEYLFEGHLCVLEPSVSAQHIAHTTASSPLTLFSTAIPKGLAFRDPALDVPKFVPKVDLQADYNTAKGVLGAGYQALRLARALLDGQELMFRGLHWVMEVLQATCRRTLEVARTSLLYLSSSLGTERFSSVAGTPEIQELKAAAELRSRLRTLAEVLSRCSQNITETQESLSSLNRELVKSRDQVHEDRSIQQIQCCLDKMNFIYKQFKKSRMRPGLGYNEEQIHKLDKVNFSHLAKRLLQVFQEECVQKYQASLVTHGKRMRVVHETRNHLRLVGCSVAACNTEAQGVQESLSKLLEELSHQLLQDRAKGAQASPPPIAPYPSPTRKDLLLHMQELCEGMKLLASDLLDNNRIIERLNRVPAPPDV
Regarding B1, in assay [4], the binding result is “binds”.
